Measured data: PubChem BioAssay AID1224830 (NIAID, 2016)
The whole screen tested about 18,000 reagents; this is a part drawn at random. About 2,900 of them (16%) were called active. 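Calls are made per well; low scores hint the gene aids the LPS response, high scores that it dampens it.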 Repeated entries: four replicate wells of each siRNA pool.

Purpose: 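Regulators of TLR4 signalling towards TNF-alpha in macrophage-like cells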 (primary screen)
System: human THP-1 monocytic leukaemia cells, TNF dual-luciferase reporter clone, PMA-differentiated to macrophage-like cells
Reagents: siRNA pool against human genes, 50 nM
Time to read-out: LPS for 4 h, given about 3 days after siRNA transfection
Conditions: bacterial LPS (TLR4 ligand), 10 ng/ml
Detection: 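TNF firefly reporter luminescence divided by renilla, normalised to the plate median, then turned into a robust z-score for each replicate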
Scale: TNF reporter robust z-score: higher = stronger TNF reporter response to LPS
Rule for the call: 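Each well counts as active if its z-score is over 2.8 or under -1.5; controls are left without a call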

Target gene | TNF reporter robust z-score | activity call
B3GNT6 (GeneID 192134) | -0.49 | inactive
B3GNT6 (GeneID 192134) | 0.21 | inactive
B3GNT6 (GeneID 192134) | -0.25 | inactive
B3GNT6 (GeneID 192134) | -0.57 | inactive
RIOK3 (GeneID 8780) | 1.16 | inactive
RIOK3 (GeneID 8780) | 0.97 | inactive
RIOK3 (GeneID 8780) | -0.12 | inactive
RIOK3 (GeneID 8780) | -0.17 | inactive
OCEL1 (GeneID 79629) | -0.7 | inactive
OCEL1 (GeneID 79629) | -0.77 | inactive
OCEL1 (GeneID 79629) | -0.67 | inactive
OCEL1 (GeneID 79629) | -0.69 | inactive
AKIRIN2 (GeneID 55122) | 0.31 | inactive
AKIRIN2 (GeneID 55122) | 0.91 | inactive
AKIRIN2 (GeneID 55122) | -0.94 | inactive
AKIRIN2 (GeneID 55122) | -0.87 | inactive
ATOH1 (GeneID 474) | -0.72 | inactive
ATOH1 (GeneID 474) | -0.47 | inactive
ATOH1 (GeneID 474) | -0.08 | inactive
ATOH1 (GeneID 474) | 0.33 | inactive
ANO6 (GeneID 196527) | -0.49 | inactive
ANO6 (GeneID 196527) | 0.6 | inactive
ANO6 (GeneID 196527) | -0.18 | inactive
ANO6 (GeneID 196527) | -0.21 | inactive
ZNF432 (GeneID 9668) | 2.21 | inactive
ZNF432 (GeneID 9668) | 1.12 | inactive
ZNF432 (GeneID 9668) | 1.1 | inactive
ZNF432 (GeneID 9668) | 1.43 | inactive
CCDC178 (GeneID 374864) | 1.26 | inactive
CCDC178 (GeneID 374864) | 0.38 | inactive
CCDC178 (GeneID 374864) | -1.13 | inactive
CCDC178 (GeneID 374864) | -0.82 | inactive
RASGRP3 (GeneID 25780) | 0.77 | inactive
RASGRP3 (GeneID 25780) | 1.24 | inactive
RASGRP3 (GeneID 25780) | 0.28 | inactive
RASGRP3 (GeneID 25780) | 1.39 | inactive
PLEKHS1 (GeneID 79949) | 0.24 | inactive
PLEKHS1 (GeneID 79949) | -0.08 | inactive
PLEKHS1 (GeneID 79949) | -0.92 | inactive
PLEKHS1 (GeneID 79949) | -0.78 | inactive
TBC1D10C (GeneID 374403) | -0.21 | inactive
TBC1D10C (GeneID 374403) | -0.13 | inactive
TBC1D10C (GeneID 374403) | 0.56 | inactive
TBC1D10C (GeneID 374403) | 0.04 | inactive
AP1S2 (GeneID 8905) | 3.18 | active
AP1S2 (GeneID 8905) | 1.18 | inactive
AP1S2 (GeneID 8905) | 2.66 | inactive
AP1S2 (GeneID 8905) | -0.84 | inactive

Active calls, among the entries above:
Target gene | TNF reporter robust z-score | activity call
AP1S2 (GeneID 8905) | 3.18 | active

The results go on:
Target gene | TNF reporter robust z-score | activity call
SMAP2 (GeneID 64744) | 0.61 | inactive
SMAP2 (GeneID 64744) | 0.35 | inactive
SMAP2 (GeneID 64744) | -0.59 | inactive
SMAP2 (GeneID 64744) | -1.04 | inactive
ZEB2 (GeneID 9839) | -0.65 | inactive
ZEB2 (GeneID 9839) | -0.19 | inactive
ZEB2 (GeneID 9839) | -0.43 | inactive
ZEB2 (GeneID 9839) | -0.91 | inactive
NDE1 (GeneID 54820) | -1.65 | active
NDE1 (GeneID 54820) | -1.79 | active
NDE1 (GeneID 54820) | -1.86 | active
NDE1 (GeneID 54820) | -1.73 | active
OC90 (GeneID 729330) | 0.28 | inactive
OC90 (GeneID 729330) | 1.79 | inactive
OC90 (GeneID 729330) | -0.72 | inactive
OC90 (GeneID 729330) | 1.15 | inactive
DOCK8 (GeneID 81704) | -1.34 | inactive
DOCK8 (GeneID 81704) | -0.7 | inactive
DOCK8 (GeneID 81704) | -0.5 | inactive
DOCK8 (GeneID 81704) | -0.67 | inactive
SMC1B (GeneID 27127) | 1.41 | inactive
SMC1B (GeneID 27127) | -0.1 | inactive
SMC1B (GeneID 27127) | 0.86 | inactive
SMC1B (GeneID 27127) | -0.64 | inactive
STOML3 (GeneID 161003) | 0.02 | inactive
STOML3 (GeneID 161003) | -0.04 | inactive
STOML3 (GeneID 161003) | -0.39 | inactive
STOML3 (GeneID 161003) | -0.79 | inactive
MORF4L2 (GeneID 9643) | -0.63 | inactive
MORF4L2 (GeneID 9643) | -0.37 | inactive
MORF4L2 (GeneID 9643) | -0.5 | inactive
MORF4L2 (GeneID 9643) | -0.34 | inactive
DHRS3 (GeneID 9249) | 1.56 | inactive
DHRS3 (GeneID 9249) | 1.27 | inactive
DHRS3 (GeneID 9249) | 1.8 | inactive
DHRS3 (GeneID 9249) | 3.2 | active
CLRN3 (GeneID 119467) | 0.71 | inactive
CLRN3 (GeneID 119467) | 0.47 | inactive
CLRN3 (GeneID 119467) | 0.19 | inactive
CLRN3 (GeneID 119467) | -0.42 | inactive
ETHE1 (GeneID 23474) | -0.22 | inactive
ETHE1 (GeneID 23474) | 0.82 | inactive
ETHE1 (GeneID 23474) | -0.92 | inactive
ETHE1 (GeneID 23474) | -0.14 | inactive
PER2 (GeneID 8864) | 0.67 | inactive
PER2 (GeneID 8864) | 0.65 | inactive
PER2 (GeneID 8864) | 0.12 | inactive
PER2 (GeneID 8864) | 1.04 | inactive
PSKH2 (GeneID 85481) | -1.37 | inactive
PSKH2 (GeneID 85481) | -0.31 | inactive
PSKH2 (GeneID 85481) | -0.01 | inactive
PSKH2 (GeneID 85481) | 0.41 | inactive
CCR8 (GeneID 1237) | -1.45 | inactive
CCR8 (GeneID 1237) | -1.48 | inactive
CCR8 (GeneID 1237) | -1.36 | inactive
CCR8 (GeneID 1237) | -1.55 | active
GPR142 (GeneID 350383) | -1.78 | active
GPR142 (GeneID 350383) | -1.4 | inactive
GPR142 (GeneID 350383) | -1.05 | inactive
GPR142 (GeneID 350383) | -1.32 | inactive
CDY1B (GeneID 253175) | -1.38 | inactive
CDY1B (GeneID 253175) | -0.94 | inactive
CDY1B (GeneID 253175) | -1.24 | inactive
CDY1B (GeneID 253175) | -1.12 | inactive
